Like-named read-outs stand apart in the source and are kept apart here.
How the values were obtained:
[1] = rabbit ear venous blood, oxygen deficiency stress, 10 mg/kg, 5-10 minutes after administration; n=30
Procedure: 2.1) Animal Experiments with rabbits to improve and/or normalize the redox status of the blood:
In 5 different rabbits, the following parameters were measured by the method and with the instrument of VINCENT in 30 experiments in venous blood:
redox potential E H or electron potential: rH2
The values were measured in the venous blood of the ear after a defined oxygen deficiency stress.
The following values were determined 5-10 minutes after the glutathione one was administered:
Boundary conditions: Temperature of 20° C., air pressure of 767 mm Hg.

[2] = human blood, oxygen deficiency stress, 600 mg slowly intravenously, 10 minutes after administration; n=50
Procedure: 2.2) Self-experiment on man to improve and/or normalize the redox status of the blood:
After a defined oxygen deficiency stress, the same parameters were determined in human blood as in the trial described above. In all 50 trials were carried out on different days
After that, glutathione was slowly administered intravenously in an amount of 600 mg.
Boundary conditions: Temperature of 20° C., air pressure of 758-770 mm Hg.

SMILES: N[C@@H](CCC(=O)N[C@@H](CS)C(=O)NCC(=O)O)C(=O)O [reduced glutathione, gamma-glutamyl-cysteinyl-glycine]
- Ohm's resistance r [1]: 202 ± 14 ohm/cm^2
- pH [1]: 7.15 ± 0.16
- Ohm's resistance r [2]: 204 ± 12.3 ohm/cm^2
- pH [2]: 7.23 ± 0.11

Source: patent publication US6030950A, “Pharmaceutical therapeutic use of glutathione derivative” (priority 1987, dated 2000)
